{"sequences": {"note": "Amino acid sequences for entries named in this document (tags omitted). Residues count along the entry.", "UniProt O00182, residues 210-355": "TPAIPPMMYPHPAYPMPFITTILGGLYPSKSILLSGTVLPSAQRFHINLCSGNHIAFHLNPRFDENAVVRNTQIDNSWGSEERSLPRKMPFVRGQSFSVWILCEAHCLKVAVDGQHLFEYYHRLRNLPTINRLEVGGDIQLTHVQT", "UniProt P25705, residues 44-553": "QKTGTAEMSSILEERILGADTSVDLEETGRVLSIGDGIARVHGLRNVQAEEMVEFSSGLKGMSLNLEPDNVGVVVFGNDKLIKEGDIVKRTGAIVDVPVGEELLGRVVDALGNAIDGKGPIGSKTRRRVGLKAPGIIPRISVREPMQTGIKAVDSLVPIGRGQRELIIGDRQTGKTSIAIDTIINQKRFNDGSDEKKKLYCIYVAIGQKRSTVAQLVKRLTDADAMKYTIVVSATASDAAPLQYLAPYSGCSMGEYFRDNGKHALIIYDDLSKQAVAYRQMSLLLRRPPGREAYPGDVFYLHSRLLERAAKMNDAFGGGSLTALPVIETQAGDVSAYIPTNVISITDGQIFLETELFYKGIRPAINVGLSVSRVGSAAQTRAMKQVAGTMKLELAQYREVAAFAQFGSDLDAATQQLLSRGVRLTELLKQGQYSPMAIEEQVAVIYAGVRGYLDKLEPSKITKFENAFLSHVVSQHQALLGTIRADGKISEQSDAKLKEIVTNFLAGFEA"}, "source": "patent US20060134119A1", "about": "“Drugs containing galectin 9” (priority 2003, published 2006)", "molecules": {"B1": {"name": "mitochondrial import receptor Tom22 (receptor, human, UniProt Q9NS69 2-142, looked up)", "chain": "AAAVAAAGAGEPQSPDELLPKGDAEKPEEELEEDDDEELDETLSERLWGLTEMFPERVRSAAGATFDLSLFVAQKMYRFSRAALWIGTTSFMILVLPVVFETEKLQMEQQQQLQQRQILLGPNTGLSGGMPGALPSLPGKI"}, "B2": {"name": "ADP, ATP carrier protein (protein, human, UniProt P12236 2-298, looked up)", "chain": "TEQAISFAKDFLAGGIAAAISKTAVAPIERVKLLLQVQHASKQIAADKQYKGIVDCIVRIPKEQGVLSFWRGNLANVIRYFPTQALNFAFKDKYKQIFLGGVDKHTQFWRYFAGNLASGGAAGATSLCFVYPLDFARTRLAADVGKSGTEREFRGLGDCLVKITKSDGIRGLYQGFSVSVQGIIIYRAAYFGVYDTAKGMLPDPKNTHIVVSWMIAQTVTAVAGVVSYPFDTVRRRMMMQSGRKGADIMYTGTVDCWRKIFRDEGGKAFFKGAWSNVLRGMGGAFVLVLYDELKKVI"}}, "key": {"[1]": {"biological_target": "GST gal9CT (GST-fused galectin-9 C-terminal region, immobilised on a column) (human) (UniProt O00182)", "experiment": "GST-gal9CT affinity column, MOLT-4 detergent extract after GST pre-column, 200 mM lactose elution; SDS-PAGE Band 3, LC-MS/MS (Mascot)"}, "[2]": {"biological_target": "GST gal9CT (GST-fused galectin-9 C-terminal region, immobilised on a column) (human) (UniProt O00182)", "experiment": "GST-gal9CT affinity column, MOLT-4 detergent extract after GST pre-column, 200 mM lactose elution; SDS-PAGE Band 6, LC-MS/MS (Mascot)"}, "[3]": {"biological_target": "GST gal9CT (GST-fused galectin-9 C-terminal region, immobilised on a column) (human) (UniProt O00182)", "experiment": "GST-gal9CT affinity column, MOLT-4 detergent extract after GST pre-column, 200 mM lactose elution; SDS-PAGE bands A + B, internal sequence analysis"}, "[4]": {"biological_target": "GST gal9CT (GST-fused galectin-9 C-terminal region, immobilised on a column) (human) (UniProt O00182)", "experiment": "GST-gal9CT affinity column, MOLT-4 detergent extract after GST pre-column, 200 mM lactose elution; SDS-PAGE Band 11, LC-MS/MS (Mascot)"}, "[5]": {"biological_target": "GST gal9CT (GST-fused galectin-9 C-terminal region, immobilised on a column) (human) (UniProt O00182)", "experiment": "GST-gal9CT affinity column, MOLT-4 detergent extract after GST pre-column, 200 mM lactose elution; SDS-PAGE band D, internal sequence analysis"}}, "note": "No constants are given. Whether binding was seen depends on the method and setting. For some assays here: In cells and extracts the contact can be indirect. Some entries that bind do so weakly or less than the wild type."}
{"molecule": "ATP synthase, H^+ transporting, mitochondrial F1 complex, alpha subunit, isoform 1, cardiac muscle (from UniProt P25705 44-553) (enzyme)", "values": [{"measurement": "binding", "setting": "[1]", "value": "binds"}, {"measurement": "binding", "setting": "[2]", "value": "binds"}]}
{"molecule": "ATP synthase, alpha chain (from UniProt P25705 44-553) (enzyme)", "values": [{"measurement": "binding", "setting": "[3]", "value": "binds"}]}
{"molecule": "B1", "values": [{"measurement": "binding", "setting": "[4]", "value": "binds"}]}
{"molecule": "B2", "values": [{"measurement": "binding", "setting": "[5]", "value": "binds"}]}
